PubChem BioAssay AID504744 | Drosophila RNAi Screening Center | 2011
Screen: 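Uncover factors, including feedback loops, that control dAkt activation in fly cells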 (primary screen). Cells: Drosophila Kc167 cells. Knock-down reagent: long dsRNA against Drosophila genes, 250 ng dsRNA per well of a 384-well plate. Time to read-out: 3 days of knock-down, then overnight serum-free starvation before stimulation. Challenge: bovine insulin at 387 nM for 10 minutes after 12 h without serum. Measured: 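In-cell antibody fluorescence for phospho-dAkt in each well over DNA-dye signal, with log2 residuals expressed as z-scores adjusted for cell count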. Call rule: 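Under insulin, a gene counts as a hit if the average z-score of two replicates lies above 2.5 or below -2.5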.
In all, the deposit lists about 23,000 reagents; shown is a random part of those with a known target gene and a result. Of all reagents, 98 (0.43%) got an active call. 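Only hit calls are given; the phospho-dAkt signals, z-scores and hit direction were not deposited.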 The numbers tell different reagents against one gene apart.

Knock-down of ppk23 (pickpocket 23) came out at: inactive.
After knock-down of Hacd2 (3-hydroxyacyl-CoA dehydratase 2), the record shows inactive.
After knock-down of bor (belphegor), the record shows inactive.
CG4576 gave inactive.
CG33464 (retired record) gave inactive.
Knock-down of CG15877 gave: inactive.
CG5376 scored inactive.
For EndoB (Endophilin B), the entry reads inactive.
Knock-down of kek5 (kekkon 5) gave: inactive.
After knock-down of CG40378 (retired record) #1, the record shows inactive.
CG40378 (retired record) #2 showed inactive.
Silencing of mRpL17 (mitochondrial ribosomal protein L17) came out at: inactive.
Against Nxf3 (Nuclear export factor 3), the entry reads inactive.
Silencing of CG34425 #1 gave: inactive.
Against CG34425 #2 the deposit lists inactive.
With knock-down of RhoGDI the results were inactive.
Against Pdfr (Pigment-dispersing factor receptor), the entry reads inactive.
After knock-down of CG10211, the screen gave inactive.
After knock-down of Su(dx) (Suppressor of deltex) the results were inactive.
obst-B (obstructor-B) scored inactive.
CG15431 showed inactive.
Silencing of CG32643 gave: inactive.
CG17721 showed inactive.
CG5665 showed inactive.
CG6602 showed inactive.
Silencing of CG33203 #1 came out at: inactive.
With knock-down of CG33203 #2, the screen gave inactive.
Depletion of CG33203 #3 came out at: inactive.
With knock-down of Tim9a the results were inactive.
Silencing of CG6805 resulted in: inactive.
Against CG3769 the deposit lists inactive.
After knock-down of CG7329, the record shows inactive.
With knock-down of Lhr (Lethal hybrid rescue), the record shows inactive.
Depletion of Gbp1 (Growth-blocking peptide 1) came out at: inactive.
CG14572 showed inactive.
Bet3 (Blocked early in transport 3) gave inactive.
For CG7548, the entry reads inactive.
For TyrRS (Tyrosyl-tRNA synthetase), the values are inactive.
After knock-down of Sgf29 (SAGA-associated factor 29kDa) the results were inactive.
For CG15706, the entry reads inactive.
Silencing of MFS14 (Major Facilitator Superfamily Transporter 14) came out at: inactive.
Silencing of CG17059 gave: inactive.
Silencing of CG5418 resulted in: inactive.
For l(3)L1231 (lethal (3) L1231), the values are inactive.
Against Nrk (Neurospecific receptor kinase) the deposit lists inactive.
Depletion of Cyp6a14 (retired record) gave: inactive.
With knock-down of mRpL24 (mitochondrial ribosomal protein L24) the results were inactive.
Pcl (Polycomblike) gave inactive.
CG4896 showed inactive.
With knock-down of CG17108 #1 the results were inactive.
With knock-down of CG17108 #2 the results were inactive.
Against Tmtc2 (Transmembrane O-mannosyltransferase targeting cadherins 2), the entry reads inactive.
homer showed inactive.
After knock-down of CG7739, the screen gave inactive.
For Trp1 (Translocation protein 1), the values are inactive.
After knock-down of Rab9Fb (Rab at 9Fb) the results were inactive.
Against Shaw (Shaker cognate w) #1 the deposit lists inactive.
Shaw (Shaker cognate w) #2 gave inactive.
Against Shaw (Shaker cognate w) #3, the values are inactive.
Knock-down of Tsf3 (Transferrin 3) came out at: inactive.
CG17826 scored inactive.
Osi20 (Osiris 20) gave inactive.
Against BomS4 (Bomanin Short 4), the values are inactive.
For 2mit #1, the entry reads inactive.
Silencing of 2mit #2 resulted in: inactive.
With knock-down of CG14325, the record shows inactive.
Against CG3257 the deposit lists inactive.
After knock-down of CG42525 the results were inactive.
With knock-down of CG14621, the screen gave inactive.
CG31482 scored inactive.
Against spag4 (sperm-associated antigen 4), the entry reads inactive.
After knock-down of CG4822 the results were inactive.
Depletion of mus81 #1 came out at: inactive.
Knock-down of mus81 #2 came out at: inactive.

7 entries from above, reformatted.
| Target gene | dsRNA no. | outcome |
| --- | --- | --- |
| bor (belphegor) | 1 | inactive |
| CG4576 | 1 | inactive |
| CG33464 (retired record) | 1 | inactive |
| CG15877 | 1 | inactive |
| CG5376 | 1 | inactive |
| EndoB (Endophilin B) | 1 | inactive |
| kek5 (kekkon 5) | 1 | inactive |
